## Cleaved PARP in drug-treated melanoma cells

From a melanoma drug combination screen (doi:10.1371/journal.pone.0140310); values rounded.

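Human melanoma cell lines in 1,536-well plates were treated with a pair of drugs for 72 h, then fixed, stained and imaged. Values are the share of nuclei positive for cleaved PARP as a percentage of the same share in the DMSO control: 100 is the control level, higher means more apoptosis. Concentrations were fixed for each drug; these are the higher of two levels. No replicate spread is given; individual values may be noisy. Basal and induced levels differ widely between cell lines.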 An unselected part of the screen is shown.

Drugs:
selumetinib, 0.075 µM: Cn1cnc2c(F)c(Nc3ccc(Br)cc3Cl)c(C(=O)NOCCO)cc21
fingolimod, 10 µM: CCCCCCCCc1ccc(CCC(N)(CO)CO)cc1
bexarotene, 10 µM: C=C(c1ccc(C(=O)O)cc1)c1cc2c(cc1C)C(C)(C)CCC2(C)C
MK-2206, 2 µM: NC1(c2ccc(-c3nc4ccn5c(=O)[nH]nc5c4cc3-c3ccccc3)cc2)CCC1
GW441756, 2 µM: Cn1cc(/C=C2\C(=O)Nc3cccnc32)c2ccccc21
vatalanib, 10 µM: Clc1ccc(Nc2nnc(Cc3ccncc3)c3ccccc23)cc1
JZL184, 5 µM: O=C(Oc1ccc([N+](=O)[O-])cc1)N1CCC(C(O)(c2ccc3c(c2)OCO3)c2ccc3c(c2)OCO3)CC1
AZD7762, 0.1 µM: NC(=O)Nc1cc(-c2cccc(F)c2)sc1C(=O)N[C@H]1CCCNC1
MK-1775, 0.1 µM: C=CCn1c(=O)c2cnc(Nc3ccc(N4CCN(C)CC4)cc3)nc2n1-c1cccc(C(C)(C)O)n1
erlotinib, 4 µM: C#Cc1cccc(Nc2ncnc3cc(OCCOC)c(OCCOC)cc23)c1
PF-562271, 0.4 µM: CN(c1ncccc1CNc1nc(Nc2ccc3c(c2)CC(=O)N3)ncc1C(F)(F)F)S(C)(=O)=O
KU-0063794, 0.1 µM: COc1ccc(-c2ccc3c(N4CCOCC4)nc(N4C[C@@H](C)O[C@@H](C)C4)nc3n2)cc1CO

- AZD7762 + fingolimod : LOX IMVI: 18800; A101D: 1170; SK-MEL-5: 103; A2058: 3770
- MK-1775 + vatalanib : LOX IMVI: 158; A101D: 111; SK-MEL-5: 372; A2058: 177
- MK-1775 + erlotinib : LOX IMVI: 239; A101D: 380; SK-MEL-5: 982; A2058: 165
- vatalanib + selumetinib : LOX IMVI: 141; A101D: 160; SK-MEL-5: 237; A2058: 118
- PF-562271 + vatalanib : LOX IMVI: 228; A101D: 95.4; SK-MEL-5: 402; A2058: 346
- selumetinib + AZD7762 : LOX IMVI: 228; A101D: 110; SK-MEL-5: 144; A2058: 366
- JZL184 + PF-562271 : LOX IMVI: 214; A101D: 112; SK-MEL-5: 80.9; A2058: 214
- MK-1775 + AZD7762 : LOX IMVI: 135; A101D: 282; SK-MEL-5: 801; A2058: 1160
- MK-1775 + fingolimod : LOX IMVI: 483; A101D: 2310; SK-MEL-5: 675; A2058: 2930
- vatalanib + erlotinib : LOX IMVI: 70.5; A101D: 52.6; SK-MEL-5: 335; A2058: 185
- JZL184 + erlotinib : LOX IMVI: 63.0; A101D: 108; SK-MEL-5: 91.6; A2058: 234
- MK-1775 + bexarotene : LOX IMVI: 52.3; A101D: 152; SK-MEL-5: 69.6; A2058: 75.7
- vatalanib + KU-0063794 : LOX IMVI: 20.9; A101D: 123; SK-MEL-5: 40.1; A2058: 137
- bexarotene + KU-0063794 : LOX IMVI: 50.7; A101D: 86.1; SK-MEL-5: 110; A2058: 99.4
- PF-562271 + KU-0063794 : LOX IMVI: 127; A101D: 134; SK-MEL-5: 85.3; A2058: 165
- GW441756 + JZL184 : LOX IMVI: 52.3; A101D: 223; SK-MEL-5: 67.7; A2058: 155
- fingolimod + vatalanib : LOX IMVI: 359; A101D: 2080; SK-MEL-5: 942; A2058: 1490
- selumetinib + bexarotene : LOX IMVI: 128; A101D: 75.9; SK-MEL-5: 211; A2058: 126
- erlotinib + bexarotene : LOX IMVI: 143; A101D: 233; SK-MEL-5: 243; A2058: 138
- vatalanib + GW441756 : LOX IMVI: 148; A101D: 111; SK-MEL-5: 127; A2058: 139
- AZD7762 + PF-562271 : LOX IMVI: 66.3; A101D: 284; SK-MEL-5: 89.9; A2058: 184
- KU-0063794 + AZD7762 : LOX IMVI: 51.2; A101D: 142; SK-MEL-5: 426; A2058: 375
- JZL184 + bexarotene : LOX IMVI: 102; A101D: 98.2; SK-MEL-5: 57.2; A2058: 49.0
- MK-2206 + vatalanib : LOX IMVI: 108; A101D: 60.5; SK-MEL-5: 1040; A2058: 255
- JZL184 + KU-0063794 : LOX IMVI: 76.9; A101D: 113; SK-MEL-5: 131; A2058: 112
- fingolimod + MK-2206 : LOX IMVI: 683; A101D: 590; SK-MEL-5: 145; A2058: 2070
- AZD7762 + vatalanib : LOX IMVI: 104; A101D: 156; SK-MEL-5: 196; A2058: 288
- selumetinib + MK-2206 : LOX IMVI: 60.3; A101D: 271; SK-MEL-5: 288; A2058: 153
- MK-1775 + KU-0063794 : LOX IMVI: 67.2; A101D: 168; SK-MEL-5: 562; A2058: 207
- selumetinib + fingolimod : LOX IMVI: 272; A101D: 2460; SK-MEL-5: 2370; A2058: 928
- KU-0063794 + fingolimod : LOX IMVI: 1640; A101D: 8630; SK-MEL-5: 583; A2058: 4580
- JZL184 + selumetinib : LOX IMVI: 11.3; A101D: 315; SK-MEL-5: 95.7; A2058: 75.9
- MK-2206 + JZL184 : LOX IMVI: 108; A101D: 81.0; SK-MEL-5: 96.0; A2058: 71.6
- KU-0063794 + GW441756 : LOX IMVI: 112; A101D: 36.2; SK-MEL-5: 300; A2058: 124

For reference, 3 entries once more:

{"pair": "AZD7762 + vatalanib", "LOX IMVI": 104, "A101D": 156, "SK-MEL-5": 196, "A2058": 288}
{"pair": "PF-562271 + KU-0063794", "LOX IMVI": 127, "A101D": 134, "SK-MEL-5": 85.3, "A2058": 165}
{"pair": "PF-562271 + vatalanib", "LOX IMVI": 228, "A101D": 95.4, "SK-MEL-5": 402, "A2058": 346}